Data source: PubChem BioAssay AID1671195 (Yale University, 2021)
In all, the deposit lists about 22,000 reagents; below is a part drawn at random. About 1,510 of them (6.9%) were called active. 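Active includes knockdowns raising or lowering LDL uptake; positive z-scores mean more uptake, negative mean less.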 Entries without a mark were called inactive.

- Test: 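Knockdowns that increase or decrease uptake of fluorescent LDL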 (primary screen)
- Cells: human Huh7 hepatoma cells
- Reagent: siRNA pool against human genes, 18 nM
- Timing: about 2 to 2.5 days of knockdown, then 8 h LDL uptake
- Treatment: DiI-labelled LDL at 30 µg/ml for 8 h, in lipoprotein-deficient serum medium
- Read-out: 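Per-cell DiI-LDL intensity by automated imaging; well means scaled to the plate median and given as a robust z-score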
- Direction: robust z-score: higher = more LDL uptake after knockdown
- Hit rule: 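Active when two or more replicates show a robust z-score above 2 or below -2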

target gene	robust z-score, replicate 1	robust z-score, replicate 2	robust z-score, replicate 3
LOC441551 (retired record)	1.65 (active)	2.16	2.37
FABP4 (fatty acid binding protein 4)	1.44	-0.261	-2.79
LINC00996 (long independently transcribed non-coding RNA 996)	-0.388	-0.41	-0.69
LOC388509 (retired record)	-0.869	-1.01	-0.856
GCKR (glucokinase regulator)	-0.317	-0.669	-0.15
DLX6-AS1 (DLX6 antisense RNA 1)	-0.616	-0.845	-0.504
TNFRSF10A-DT (TNFRSF10A divergent transcript)	1.18	0.906	1.14
WDR70 (WD repeat domain 70)	2.83 (active)	1.69	10.7
LOC399786 (retired record)	-0.857	-0.507	-0.868
RASAL2 (RAS protein activator like 2)	0.0369	0.0677	0.259
CABP4 (calcium binding protein 4)	0.824	0.351	0.549
GIMAP1 (GTPase, IMAP family member 1)	-0.883	-0.5	-0.689
MAP4K1 (mitogen-activated protein kinase kinase kinase kinase 1)	-0.335	-0.163	0.208
ARMC7 (armadillo repeat containing 7)	-1.33	-1.39	-1.38
OGFOD3	1.05	0.477	1.15
LOC441651 (retired record)	5.32 (active)	6.38	5.6
ARHGAP24 (Rho GTPase activating protein 24)	3.62	1.57	1.69
SMYD2 (SET and MYND domain containing 2)	-1.76	-1.63	-1.53
GIGYF2 (GRB10 interacting GYF protein 2)	-0.851	-0.0987	0.337
C4orf46 (chromosome 4 open reading frame 46)	0.111	0.242	0.0468

Continued (5 carried over from the part before).
target gene	robust z-score, replicate 1	robust z-score, replicate 2	robust z-score, replicate 3
LOC441651 (retired record)	5.32 (active)	6.38	5.6
ARHGAP24 (Rho GTPase activating protein 24)	3.62	1.57	1.69
SMYD2 (SET and MYND domain containing 2)	-1.76	-1.63	-1.53
GIGYF2 (GRB10 interacting GYF protein 2)	-0.851	-0.0987	0.337
C4orf46 (chromosome 4 open reading frame 46)	0.111	0.242	0.0468
LOC440818 (retired record)	-2.77	0.559	0.658
CRYAB (crystallin alpha B)	0.0268	0.223	-0.15
ADM2 (adrenomedullin 2)	-1.15	-0.809	-1.33
GPD1 (glycerol-3-phosphate dehydrogenase 1)	-2.38 (active)	-1.98	-2.41
SCNN1B (sodium channel epithelial 1 subunit beta)	-0.7	-0.602	-0.292
SLC13A4	-0.634	-0.862	-0.363
COA6 (cytochrome c oxidase assembly factor 6)	0.241	-0.318	-0.189
ZC3H6 (zinc finger CCCH-type containing 6)	-1.08	-1.14	-1.04
MUS81 (MUS81 structure-specific endonuclease subunit)	-0.0931	-0.433	-0.666
EIF2AK3 (eukaryotic translation initiation factor 2 alpha kinase 3)	-0.273	0.182	-0.516
WNT10B (Wnt family member 10B)	0.0587	-0.415	-1.13
PIR (pirin)	-0.361	-1.51	-0.742
COL15A1 (collagen type XV alpha 1 chain)	1.52	0.822	1.2
CCDC77 (coiled-coil domain containing 77)	0.83	0.472	0.175
PLA2G4F (phospholipase A2 group IVF)	-0.607	-0.72	-0.601
ASCL3 (achaete-scute family bHLH transcription factor 3)	-0.532	-0.45	-0.281
MSRB2 (methionine sulfoxide reductase B2)	-1.71	-1.65	-1.54
WDR86 (WD repeat domain 86)	-0.0548	0.203	0.676
PAPSS1 (3'-phosphoadenosine 5'-phosphosulfate synthase 1)	-0.448	-1.18	-0.346
FBXO9 (F-box protein 9)	1.39	1.85	1.84
SLC67A1	-0.827	-0.302	-0.278
BBS2 (Bardet-Biedl syndrome 2)	-0.171	-0.0489	-0.154
MRPL17 (mitochondrial ribosomal protein L17)	-0.578	-0.695	-1.37
CCDC184 (coiled-coil domain containing 184)	0.911	0.777	1.3
RPS21 (ribosomal protein S21)	-1.93	-0.776	-1.5
SELE (selectin E)	-0.854	-0.886	-0.795
